Tested on: PD-1-overexpressing Jurkat cells
Assay: Small molecule screen: IL2 secretion (AlphaLISA) from stimulated PD-1-overexpressing Jurkat cells
Format: cell-based, human
Conditions: 3.3 μM compound; for Zscore_1 / Zscore_2: IL2 level, α-CD3/α-CD28/α-PD-1 beads; for Zscore_1: replicate 1; for Zscore_2: replicate 2; for Zscore_AVG: average of replicate Z scores
Experimental: PD-1-overexpressing Jurkat cells were plated at a concentration of 100,000 cells/well in a total volume of 80 μl. […] Dynabeads conjugated to α-CD3, α-CD28, and α-PD-1 antibodies were added in 20 for a final assay volume of 100 with a final compound concentration of 3.3 μM and an 8:1 bead:cell ratio. Beads were conjugated to α-CD3/α-CD28/control IgG and added to wells containing DMSO-treated cells as a positive control, while beads conjugated to α-CD3/α-CD28/α-PD1 were added to wells containing DMSO-treated cells as a negative control. Supernatants from each well were analyzed for IL2 levels by AlphaLISA (Perkin Elmers) according to the manufacturer's protocol. Average and standard deviation values were calculated from the PD-1 controls (DMSO-treated cells stimulated with α-CD3/α-CD28/α-PD-1 beads); hits were defined as compounds scoring at least 3 standard deviations from the mean of the controls.
In addition to known negative regulators of IL-2 production (e.g. glycogen synthase kinase-3α/β (GSK3α/β) (24,25)), this screen identified cyclin-dependent kinases 4 and 6 inhibitors (CDK4/6i) as top hits (Table 1).

SMILES | Zscore_1 | Zscore_2 | Zscore_AVG
O.O=C1NC(=O)c2c1c(-c1ccccc1)cc1[nH]c3ccc(O)cc3c21 [Wee1/Chk1 Inhibitor] | −0.1239 | −2.252 | −1.188
O=C1Nc2ccc(-c3cccnc3)cc2/C1=C/c1ccc[nH]1 [JAK3 Inhibitor VI] | 8.226 | 11.47 | 9.846

Source: patent US11865176B2, “Compositions and methods of modulating anti-tumor immunity” (Dana-Farber Cancer Institute, Inc., priority 2016, dated 2024)
